{"source": "the supplement of paper PMC8728848", "binders": {"B1": {"name": "SspB A3vp1 (Streptococcus gordonii), Q54186 (protein)", "chain": "MTNEADYQAKLAAYQTELARVQKANADAKATYEKAVEDNKAKNAAIKAENEEIKQRNAVAKTDYEAKLAKYEADLAKYKKEFAAYTAALAEAESKKKQDGYLSEPRSQSLNFKSEPNAIRTIDSSVHQYGQQELDALVKSWGISPTNPDRKKSRAYSYFNAINSNNTYAKLVLEKDKPVDVTYTGLKNSSFNGKKISKVVYTYTLKETGFNDGTKMTMFASSDPTVTAWYNDYFTSTNINVKVKFYDEEGQLMNLTGGLVNFSSLNRGNGSGAIDKDAIESVRNFNGRYIPISGSSIKIHENNSAYADSSNAEKSLGARWNTSEWDTTSSPNNWYGAIVGEITQSEISFNMASSKSGNIWFAFNSNINAIGVPTKPVAPTAPTQPMYETEKPLEPAPVAPSYENEPTPPVKTPDQPEPSKPAAALEHHHHHH"}}, "test_in_all_cases": "glycan array binding signal (z-score within array); higher = stronger binding", "conditions_in_all_cases": "glycan notation: IUPAC condensed, linker removed", "key": {"Glc(b1-6)Glc": {"molecular_target": "Glc(b1-6)Glc", "procedure,_shortened": "(§1)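 The Consortium for Functional Glycomics database supplied 3228 glycan arrays, of which those lacking an available protein sequence were dropped. The binding signal, a within-array Z-score, was averaged across arrays of the same protein sequence and across linkers. Negative scores can be read as non-binding.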"}, "GlcA(b1-3)Gal": {"molecular_target": "GlcA(b1-3)Gal", "procedure,_shortened": "as §1"}, "GlcA(b1-3)GlcNAc": {"molecular_target": "GlcA(b1-3)GlcNAc", "procedure,_shortened": "as §1"}, "GlcA(b1-6)Gal": {"molecular_target": "GlcA(b1-6)Gal", "procedure,_shortened": "as §1"}, "[1]": {"molecular_target": "GlcA3S(b1-3)Gal(b1-4)GlcNAc(b1-2)Man", "procedure,_shortened": "as §1"}, "[2]": {"molecular_target": "GlcA3S(b1-3)Gal(b1-4)GlcNAc(b1-3)Gal(b1-4)Glc", "procedure,_shortened": "as §1"}, "[3]": {"molecular_target": "GlcNAc(a1-3)Gal(b1-4)GlcNAc", "procedure,_shortened": "as §1"}, "[4]": {"molecular_target": "GlcNAc(a1-4)Gal(b1-3)GlcNAc", "procedure,_shortened": "as §1"}, "[5]": {"molecular_target": "GlcNAc(a1-4)Gal(b1-4)GalNAc", "procedure,_shortened": "as §1"}, "[6]": {"molecular_target": "GlcNAc(a1-4)Gal(b1-4)GlcNAc", "procedure,_shortened": "as §1"}, "[7]": {"molecular_target": "GlcNAc(a1-4)Gal(b1-4)GlcNAc(b1-3)Gal(b1-4)Glc", "procedure,_shortened": "as §1"}, "[8]": {"molecular_target": "GlcNAc(a1-4)Gal(b1-4)GlcNAc(b1-3)Gal(b1-4)GlcNAc", "procedure,_shortened": "as §1"}, "[9]": {"molecular_target": "GlcNAc(a1-4)Gal(b1-4)GlcNAc(b1-3)Gal(b1-4)GlcNAc(b1-3)Gal(b1-4)GlcNAc", "procedure,_shortened": "as §1"}, "[10]": {"molecular_target": "GlcNAc(a1-4)Gal(b1-4)GlcNAc(b1-3)Gal(b1-4)[Fuc(a1-3)]GlcNAc(b1-3)Gal(b1-4)[Fuc(a1-3)]GlcNAc", "procedure,_shortened": "as §1"}, "[11]": {"molecular_target": "GlcNAc(a1-6)Gal(b1-4)GlcNAc", "procedure,_shortened": "as §1"}, "[12]": {"molecular_target": "GlcNAc(b1-2)Gal(b1-3)GalNAc", "procedure,_shortened": "as §1"}, "[13]": {"molecular_target": "GlcNAc(b1-2)Man(a1-3)[GlcNAc(b1-2)Man(a1-6)]Man(b1-4)GlcNAc(b1-4)GlcNAc", "procedure,_shortened": "as §1"}, "[14]": {"molecular_target": "GlcNAc(b1-2)Man(a1-3)[GlcNAc(b1-2)Man(a1-6)]Man(b1-4)GlcNAc(b1-4)[Fuc(a1-6)]GlcNAc", "procedure,_shortened": "as §1"}, "[15]": {"molecular_target": "GlcNAc(b1-2)Man(a1-3)[GlcNAc(b1-4)][GlcNAc(b1-2)Man(a1-6)]Man(b1-4)GlcNAc(b1-4)GlcNAc", "procedure,_shortened": "as §1"}, "[16]": {"molecular_target": "GlcNAc(b1-2)Man(a1-3)[GlcNAc(b1-4)][GlcNAc(b1-2)Man(a1-6)]Man(b1-4)GlcNAc(b1-4)[Fuc(a1-6)]GlcNAc", "procedure,_shortened": "as §1"}, "[17]": {"molecular_target": "GlcNAc(b1-2)[GlcNAc(b1-4)]Man(a1-3)[GlcNAc(b1-2)Man(a1-6)]Man(b1-4)GlcNAc(b1-4)GlcNAc", "procedure,_shortened": "as §1"}, "[18]": {"molecular_target": "GlcNAc(b1-2)[GlcNAc(b1-4)]Man(a1-3)[GlcNAc(b1-4)][GlcNAc(b1-2)Man(a1-6)]Man(b1-4)GlcNAc(b1-4)GlcNAc", "procedure,_shortened": "as §1"}, "[19]": {"molecular_target": "GlcNAc(b1-2)[GlcNAc(b1-4)]Man(a1-3)[GlcNAc(b1-4)][GlcNAc(b1-2)[GlcNAc(b1-6)]Man(a1-6)]Man(b1-4)GlcNAc(b1-4)GlcNAc", "procedure,_shortened": "as §1"}, "[20]": {"molecular_target": "GlcNAc(b1-2)[GlcNAc(b1-4)]Man(a1-3)[GlcNAc(b1-4)][GlcNAc(b1-2)[GlcNAc(b1-6)]Man(a1-6)]Man(b1-4)GlcNAc(b1-4)[Fuc(a1-6)]GlcNAc", "procedure,_shortened": "as §1"}, "[21]": {"molecular_target": "GlcNAc(b1-2)[GlcNAc(b1-6)]Man(a1-6)[GlcNAc(b1-2)Man(a1-3)]Man(b1-4)GlcNAc(b1-4)GlcNAc", "procedure,_shortened": "as §1"}, "[22]": {"molecular_target": "GlcNAc(b1-2)[GlcNAc(b1-6)]Man(a1-6)[GlcNAc(b1-2)Man(a1-3)]Man(b1-4)GlcNAc(b1-4)[Fuc(a1-6)]GlcNAc", "procedure,_shortened": "as §1"}, "[23]": {"molecular_target": "GlcNAc(b1-2)[GlcNAc(b1-6)]Man(a1-6)[GlcNAc(b1-4)][GlcNAc(b1-2)Man(a1-3)]Man(b1-4)GlcNAc(b1-4)GlcNAc", "procedure,_shortened": "as §1"}, "GlcNAc(b1-3)Fuc": {"molecular_target": "GlcNAc(b1-3)Fuc", "procedure,_shortened": "as §1"}, "GlcNAc(b1-3)Gal": {"molecular_target": "GlcNAc(b1-3)Gal", "procedure,_shortened": "as §1"}, "[24]": {"molecular_target": "GlcNAc(b1-3)Gal(b1-3)GalNAc", "procedure,_shortened": "as §1"}, "GlcNAc(b1-3)Gal(b1-4)Glc": {"molecular_target": "GlcNAc(b1-3)Gal(b1-4)Glc", "procedure,_shortened": "as §1"}, "[25]": {"molecular_target": "GlcNAc(b1-3)Gal(b1-4)GlcNAc", "procedure,_shortened": "as §1"}, "[26]": {"molecular_target": "GlcNAc(b1-3)Gal(b1-4)GlcNAc(b1-2)Man(a1-3)[GlcNAc(b1-3)Gal(b1-4)GlcNAc(b1-2)Man(a1-6)]Man(b1-4)GlcNAc(b1-4)GlcNAc", "procedure,_shortened": "as §1"}, "[27]": {"molecular_target": "GlcNAc(b1-3)Gal(b1-4)GlcNAc(b1-2)Man(a1-3)[GlcNAc(b1-3)Gal(b1-4)GlcNAc(b1-2)Man(a1-6)]Man(b1-4)GlcNAc(b1-4)[Fuc(a1-6)]GlcNAc", "procedure,_shortened": "as §1"}, "[28]": {"molecular_target": "GlcNAc(b1-3)Gal(b1-4)GlcNAc(b1-2)[GlcNAc(b1-3)Gal(b1-4)GlcNAc(b1-6)]Man(a1-6)[GlcNAc(b1-3)Gal(b1-4)GlcNAc(b1-2)Man(a1-3)]Man(b1-4)GlcNAc(b1-4)GlcNAc", "procedure,_shortened": "as §1"}, "[29]": {"molecular_target": "GlcNAc(b1-3)Gal(b1-4)GlcNAc(b1-3)Gal(b1-4)GlcNAc", "procedure,_shortened": "as §1"}, "[30]": {"molecular_target": "GlcNAc(b1-3)Gal(b1-4)GlcNAc(b1-3)Gal(b1-4)GlcNAc(b1-2)Man(a1-3)[GlcNAc(b1-3)Gal(b1-4)GlcNAc(b1-3)Gal(b1-4)GlcNAc(b1-2)Man(a1-6)]Man(b1-4)GlcNAc(b1-4)GlcNAc", "procedure,_shortened": "as §1"}}, "note": "This is one part of the list."}
{"binder": "B1", "values": [{"measurement": "glycan array binding signal (z-score)", "setting": "Glc(b1-6)Glc", "value": -0.58}, {"measurement": "glycan array binding signal (z-score)", "setting": "GlcA(b1-3)Gal", "value": 0.34}, {"measurement": "glycan array binding signal (z-score)", "setting": "GlcA(b1-3)GlcNAc", "value": -0.903}, {"measurement": "glycan array binding signal (z-score)", "setting": "GlcA(b1-6)Gal", "value": -0.084}, {"measurement": "glycan array binding signal (z-score)", "setting": "[1]", "value": -1.19}, {"measurement": "glycan array binding signal (z-score)", "setting": "[2]", "value": -1.2}, {"measurement": "glycan array binding signal (z-score)", "setting": "[3]", "value": -0.25}, {"measurement": "glycan array binding signal (z-score)", "setting": "[4]", "value": -0.98}, {"measurement": "glycan array binding signal (z-score)", "setting": "[5]", "value": 0.655}, {"measurement": "glycan array binding signal (z-score)", "setting": "[6]", "value": -0.84}, {"measurement": "glycan array binding signal (z-score)", "setting": "[7]", "value": -1.28}, {"measurement": "glycan array binding signal (z-score)", "setting": "[8]", "value": -0.995}, {"measurement": "glycan array binding signal (z-score)", "setting": "[9]", "value": -1.01}, {"measurement": "glycan array binding signal (z-score)", "setting": "[10]", "value": 1.62}, {"measurement": "glycan array binding signal (z-score)", "setting": "[11]", "value": -0.617}, {"measurement": "glycan array binding signal (z-score)", "setting": "[12]", "value": -0.865}, {"measurement": "glycan array binding signal (z-score)", "setting": "[13]", "value": -0.445}, {"measurement": "glycan array binding signal (z-score)", "setting": "[14]", "value": 0.426}, {"measurement": "glycan array binding signal (z-score)", "setting": "[15]", "value": -0.271}, {"measurement": "glycan array binding signal (z-score)", "setting": "[16]", "value": -1.06}, {"measurement": "glycan array binding signal (z-score)", "setting": "[17]", "value": -1.22}, {"measurement": "glycan array binding signal (z-score)", "setting": "[18]", "value": -1.19}, {"measurement": "glycan array binding signal (z-score)", "setting": "[19]", "value": -0.574}, {"measurement": "glycan array binding signal (z-score)", "setting": "[20]", "value": -0.341}, {"measurement": "glycan array binding signal (z-score)", "setting": "[21]", "value": -0.001}, {"measurement": "glycan array binding signal (z-score)", "setting": "[22]", "value": 0.007}, {"measurement": "glycan array binding signal (z-score)", "setting": "[23]", "value": -0.233}, {"measurement": "glycan array binding signal (z-score)", "setting": "GlcNAc(b1-3)Fuc", "value": -0.426}, {"measurement": "glycan array binding signal (z-score)", "setting": "GlcNAc(b1-3)Gal", "value": -1.12}, {"measurement": "glycan array binding signal (z-score)", "setting": "[24]", "value": 0.022}, {"measurement": "glycan array binding signal (z-score)", "setting": "GlcNAc(b1-3)Gal(b1-4)Glc", "value": -1.18}, {"measurement": "glycan array binding signal (z-score)", "setting": "[25]", "value": -0.345}, {"measurement": "glycan array binding signal (z-score)", "setting": "[26]", "value": 0.452}, {"measurement": "glycan array binding signal (z-score)", "setting": "[27]", "value": 0.327}, {"measurement": "glycan array binding signal (z-score)", "setting": "[28]", "value": 0.885}, {"measurement": "glycan array binding signal (z-score)", "setting": "[29]", "value": -0.627}, {"measurement": "glycan array binding signal (z-score)", "setting": "[30]", "value": 0.661}]}
